Assay results reported in doi:10.1101/2025.10.24.684325.
Results are given in words; binding and its absence hold for the method and conditions named. Binding seen in cells or lysates may run through a third protein. Some entries that bind do so weakly or less than the wild type.

By UniProt entry, the sequences of proteins in these tests, tags left out.
UniProt P08752: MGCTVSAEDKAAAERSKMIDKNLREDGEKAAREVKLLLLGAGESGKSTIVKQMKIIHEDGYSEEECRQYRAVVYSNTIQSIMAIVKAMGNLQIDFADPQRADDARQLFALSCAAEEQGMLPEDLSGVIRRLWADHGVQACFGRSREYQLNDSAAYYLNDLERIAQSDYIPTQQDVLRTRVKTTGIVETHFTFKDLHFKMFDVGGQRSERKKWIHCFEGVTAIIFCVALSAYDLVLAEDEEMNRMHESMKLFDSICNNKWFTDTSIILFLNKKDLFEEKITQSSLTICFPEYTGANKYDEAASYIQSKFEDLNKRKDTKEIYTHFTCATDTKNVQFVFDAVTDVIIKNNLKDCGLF

Tests used:
[1] = molecular target: T1, TMEM100 (transmembrane protein 100), precipitated with anti-TMEM100 (mouse (endogenous in PVECs)) (UniProt Q9CQG9); assay: co-IP
T1 sequence: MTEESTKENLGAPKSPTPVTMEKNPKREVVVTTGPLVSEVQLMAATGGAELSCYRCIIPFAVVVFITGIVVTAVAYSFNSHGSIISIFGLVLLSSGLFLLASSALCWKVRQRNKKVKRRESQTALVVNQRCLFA

[2] = molecular target: T2, PRDX1 (mouse (endogenous in PVECs)) (UniProt P35700); assay: co-IP
T2 sequence: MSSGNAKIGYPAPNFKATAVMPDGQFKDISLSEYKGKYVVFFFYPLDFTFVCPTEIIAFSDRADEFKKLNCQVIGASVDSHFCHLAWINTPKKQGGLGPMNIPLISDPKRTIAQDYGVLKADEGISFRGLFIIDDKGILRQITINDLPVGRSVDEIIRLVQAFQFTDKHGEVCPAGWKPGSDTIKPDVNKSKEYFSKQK

GNAI2 (from UniProt P08752 1-355)
binding [1]: binds | binding [2]: binds
